These results are taken from PubChem BioAssay AID1487 (National Center for Advancing Translational Sciences (NCATS), 2009).

A short description of the assay: qHTS Assay for Modulators of Lamin A Splicing. The note with it: HeLa LMNA splicing GFP/RFP minigene ratio, 48 h. A digest of the protocol: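 Read-out is the ratio of GFP to DsRed2 object intensity, acquired by 488 nm laser-scanning cytometry on HeLa lamin A-EGFP minigene reporter cells. Compound incubation 48 hrs at 37 °C in Opti-MEM with 2% FBS; DMSO 0.5% final.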
Background: qHTS replaces the single test concentration by a dilution series.

[1] abbreviates: measured here: GFP splicing reporter channel.
[2] abbreviates: measured here: RFP viability control channel.

Some of the results follow. Further columns of the screen follow, without active or inactive calls. Compounds called inactive in the main read-out are mostly missing here. Words in brackets tell the shape of the fitted curve; partial curves, single points and poor fits give uncertain potencies.

In the case of `NC(=O)OCC(COC(N)=O)c1ccccc1`, the AC50 – broadly, the concentration giving half of the maximal activity seen – under setting [1] is 0.00631 µM [falling, full curve, poor fit]. In the case of `COc1cc(/C=C2/SC(=Nc3ccc(O)cc3)NC2=O)ccc1O`, the AC50 under setting [2] is 11.2 µM [falling, partial curve, poor fit]. For the compound `Cn1nccc1C(=O)NCc1ccc2c(c1)CCN2C(=O)c1ccccc1`, the AC50 under setting [1] is 1 µM [falling, full curve, poor fit]. As for `CN(Cc1ccccc1)Cc1nc2c(c(=O)n(C)c(=O)n2C)n1Cc1ccc(F)cc1`, the AC50 under setting [1] was 0.316 µM [rising, partial curve, poor fit]. As for `CC1CCCN(CCCNC(=O)CN2C(=O)CSc3ccc(S(=O)(=O)N4CCOCC4)cc32)C1` (centres undefined), under setting [1], the AC50 was 0.0126 µM [falling, full curve, poor fit]. Still for that read-out and setting: the value for `C[C@@H](C(=O)O)c1ccc(C(=O)c2ccccc2)s1` was 0.002 µM [falling, full curve, poor fit]. For the compound `O=C(Nc1cc(C(F)(F)F)ccc1Cl)c1ccc(NC(=O)C(F)(F)F)cc1`, under setting [2], the AC50 is 0.00794 µM [rising, full curve, poor fit]. For the compound `O=C(CSCc1ccc(Cl)cc1Cl)Nc1ccccc1C(=O)Nc1ccc(C(=O)O)cc1`, under setting [1], the AC50 was 2.51 µM [falling, full curve, poor fit]. With `Cc1ccc(C)c(NC(=S)N/N=C2/CCCCc3ccccc32)c1`, the half-maximal activity concentration (AC50) under setting [2] was 35.5 µM [rising, single point]. For the compound `Cc1[nH]c2ccccc2c1C(c1ccncc1)N1CCN(c2ccc(F)cc2)CC1` (centres undefined), the AC50 under setting [2] is 35.5 µM [rising, single point].

Turning to `Cc1ccc(NC(=O)Nc2ccc(F)c(Cl)c2)cc1`, the AC50 under setting [2] is 35.5 µM [rising, partial curve]. On to `CCN(Cc1ccccc1)C(c1ccc(Cl)cc1)c1nnnn1C(C)(C)C` (centres undefined), for which the AC50 under setting [2] was 3.55 µM [falling, single point]. Regarding `Cc1ccc(C(c2sc3nc(-c4ccco4)nn3c2O)N2CCN(Cc3ccccc3)CC2)cc1` (centres undefined), the AC50 under setting [2] is 0.282 µM [falling, partial curve].

On to `O=C(OCC(=O)N1CCCCCC1)c1ccc([N+](=O)[O-])cc1Cl`, for which the AC50 under setting [1] was 0.0178 µM [falling, full curve, poor fit]. With `COc1ccc(NC(=O)CCN2CCN(S(=O)(=O)c3ccc(OC)cc3)CC2)cc1`, under setting [1], the AC50 was 12.6 µM [rising, partial curve, poor fit]. For the compound `Cc1ccc(-c2noc(CCC(=O)N3CCCC3)n2)cc1`, the AC50 under setting [1] was 22.4 µM [rising, single point] and the AC50 under setting [2] is 35.5 µM [rising, single point]. For `COc1ccc(N(Cc2cc3ccccc3[nH]c2=O)S(C)(=O)=O)cc1`, the AC50 under setting [2] was 11.2 µM [rising, single point]. Turning to `CCOc1cc(C(=S)N2CCOCC2)ccc1OS(=O)(=O)c1ccccc1[N+](=O)[O-]`, the AC50 is, setting by setting: under setting [1], 5.01 µM [rising, partial curve]; under setting [2], 12.6 µM [rising, partial curve]. On to `Cc1ccccc1NC(=O)CSc1nc(N)c2c3c(sc2n1)CSC(C)(C)C3`, for which the AC50 under setting [2] was 15.8 µM [rising, partial curve, poor fit]. Regarding `COc1ccc(NC(=O)CCn2cccn2)cc1OC`, under setting [1], the AC50 was 3.98 µM [rising, full curve, poor fit].

As to `COc1ccc(/C=c2\s/c(=C/C(=O)c3ccc(C)cc3)[nH]c2=O)c(OC)c1`, the AC50 under setting [2] is 17.8 µM [rising, partial curve]. As to `Cc1cccc(C(=O)Nc2ccccc2SCc2cc(=O)c3cccc(C)c3[nH]2)c1`, the AC50 is 0.0501 µM [rising, full curve, poor fit] under setting [1] and 8.91 µM [rising, partial curve] under setting [2]. On to `CN1CCN(c2ccc(S(=O)(=O)Nc3ccccc3)cc2[N+](=O)[O-])CC1`, for which the AC50 is, setting by setting: under setting [1], 12.6 µM [rising, single point]; under setting [2], 14.1 µM [rising, partial curve]. As for `Cc1ccc(N(C)C(=O)C2CCCN(c3ncnc4c3nc3n4CCCCC3)C2)cc1C` (centres undefined), under setting [1], the AC50 is 39.8 µM [falling, partial curve, poor fit].

Take `COc1ccc(N(C(=O)CS(=O)CC(=O)Nc2ccc(F)cc2)C(C(=O)NC2CCCCC2)c2cccs2)cc1` (centres undefined): the AC50 was 17.8 µM [rising, single point] under setting [1] and 15.8 µM [rising, single point] under setting [2]. As for `CCCCn1c(SCC(=O)Nc2cc(C(F)(F)F)ccc2Cl)nnc1C(CC)N(C)C` (centres undefined), the AC50 by setting is: under setting [1], 22.4 µM [rising, single point]; under setting [2], 35.5 µM [rising, single point]. Regarding `COc1ccc(CC(=O)Nc2cccc(C)n2)cc1OC`, the AC50 under setting [1] was 1 µM [rising, full curve, poor fit] and the AC50 under setting [2] was 20 µM [rising, single point].

As for `O=C(Cn1nc(-c2ccccc2)ccc1=O)Nc1ccc(N2CCN(C(=O)c3ccccc3)CC2)cc1`, the AC50 under setting [2] is 11.2 µM [rising, partial curve, poor fit].

With `CCCCN(CCCC)CC(O)CN(c1cc([N+](=O)[O-])ccc1OC)S(=O)(=O)c1ccccc1` (centres undefined), the AC50 under setting [2] is 14.1 µM [rising, single point]. On to `CC(O/N=C/c1ccccc1OC(F)F)C(=O)Nc1cccc(S(=O)(=O)N2CCOCC2)c1` (centres undefined), for which the AC50 under setting [2] is 20 µM [rising, partial curve, poor fit]. For the compound `O=C(Nc1ccc(CN2CCOCC2)cc1)c1ccc(-c2ccc(Cl)cc2Cl)o1`, the AC50 under setting [2] is 12.6 µM [falling, partial curve, poor fit].

For the compound `CC(=O)c1ccc(NC(=S)NCCCN2CCOCC2)cc1`, the AC50 under setting [1] is 11.2 µM [rising, partial curve]. With `C[C@@]12CC(=O)NC1N(C(=O)c1cccc(C(F)(F)F)c1)C(c1ccccc1OC(=O)c1cccc(C(F)(F)F)c1)C2` (some centres undefined), under setting [1], the AC50 is 12.6 µM [rising, single point]. Consider `COc1cccc(NC(=S)N(CCc2c(C)[nH]c3ccc(C)cc23)Cc2cccs2)c1`, for which the half-maximal activity concentration (AC50) was 7.94 µM [rising, partial curve, poor fit] under setting [1] and 14.1 µM [rising, partial curve] under setting [2]. For the compound `COc1ccc(-c2cnc(C)o2)cc1S(=O)(=O)Nc1ccc(C)c(N(C)C)c1`, the AC50 reads like this: under setting [1], 6.31 µM [rising, single point]; under setting [2], 5.62 µM [rising, single point].
